Patent US20240306670A1, “BERBERINE ALKALOIDS IN THE PREVENTION AND/OR TREATMENT OF INTESTINAL DISEASE” (priority 2017, published 2024)
Entries after “also recorded” stand apart in the source; their conditions may differ.

Tests used:
[1] = Feed palatability, feed and water consumption and bird productivity study (Example 2); format: in vivo, broiler chickens; settings: for water intake: vs untreated
From the text: A follow-up study to determine the feed palatability, feed and water consumption and bird productivity following incorporation of a single formulation of IRP001 hemisulfate salt (unmasked) when offered to broiler chickens in-feed or in-water. The study explores the optimal treatment regime in terms of treatment start date.
Phase 1: On receipt, two hundred and seventy (270) day-old commercial broiler chickens were allocated sequentially as they are received into sixteen (16) individual floor pens, each of 16 or 17 birds, on Day 0.
Phase 2: On receipt, the ninety (90) day-old commercial broiler chickens were allocated sequentially as they are received into four (4) individual floor pens, each of 22 or 23 birds, on Day 22.
Feed intake, water intake, weight gain and mortality were used as outcome parameters.
Individual daily feed intake and individual daily water intake data by pen and then by treatment group were calculated for Phases 1 and 2 (and for the entire trial for the birds in Group/Pen 2, 15 and 16 that continue through both Phases) using figures for total feed and water provided each day to each pen divided by the number of birds in each pen. Where errors in weighing, feeding/watering or recording (or other unexplained losses of feed and water) had occurred means were adjusted by using the mean value for the same pen on the 1-2 days either side of the apparent error. Similarly, group mean bodyweights were calculated for Phase 1 using total weight/total no. birds for Day 0 and individual weights from Days 7, 14, 21, 28, 35 and 42. Total (individual) feed consumed was calculated per treatment and feed conversion ratios per treatment calculated using the expression: total (individual) feed/total (individual) weight gain.
Individual daily feed intake and individual daily water intake were statistically compared by treatment within each phase and between Pens 2 and 15/16 over both phases using a linear model:—
and Tibco SPOTFIRE S+ 8.2 (2010). ‘Day’ was included in the model to allow for changes over time, ‘Pen’ as each treatment consisted of 2 pens while an interaction term ‘Treatment:Day’ was included to allow for treatment×time effects. Model suitability was confirmed by inspection of residual plots; in all instances the statistical model was appropriate.

[2] = system: Eimeria species (mainly E. acervulina); settings: in vivo
[3] = Phase 1+2, pen 2 untreated vs 15/16 treated in-water day 6-42

| Compound | difference in feed eaten over the total trial, untreated vs treated [1, 3] | water intake over the total trial [1, 3] | water intake ([1]; Phase 1, unmasked, 1.0 g/L in drinking water over varying periods) | water intake ([1]; Phase 2, 2 g/kg in-feed days 25-42) | feed consumed ([1]; treated birds, in-water days 6-42) | feed consumed over the trial [2] |
| --- | --- | --- | --- | --- | --- | --- |
| berberine hemisulfate [IRP001 sulfate] | ~0.14 kg | untreated birds drinking more water | drank less water; also recorded: tended to drink less water | drinking more water; also recorded: tended to drink more water | 3.84 kg |  |
| COc1ccc2cc3[n+](cc2c1OC)CCc1cc2c(cc1-3)OCO2 [IRP001 chloride, berberine chloride] |  |  |  |  |  | consumed less feed over the trial than any other group |
